We go through three substances from US20240390508A1 (priority 2021, published 2024).

The nature of series [1]: general procedure: Fmoc solid-phase peptide synthesis; Fmoc-βAla-Alko resin; Fmoc-AA/HATU/DIEA (4.2/4/8 equivalents). Conditions: whole synthesis, scale 0.05 mmol.
The nature of series [2]: general procedure: Fmoc solid-phase peptide synthesis; Fmoc-Gly-Alko resin; Fmoc-AA/HATU/DIEA (4.2/4/8 equivalents). The settings on record: whole synthesis, scale 0.05 mmol.
The nature of series [3]: general procedure: Fmoc solid-phase peptide synthesis; Sieber amide resin; Fmoc-AA/HATU/DIEA (4.2/4/8 equivalents). The settings on record: whole synthesis, scale 50 μmol.

For BCN-AEEA-Arg-Arg-Arg-(3 Åla-OH, the isolated mass in series [1] was found to be 55.3 mg. With 4-pentynoyl-AEEA-Arg-Arg-Arg-Gly-OH, in series [2], the crude mass stood at 34.0 mg. For “BCN-Gly-Gly-Gly-Glu-Glu-Glu-Ser-Ser-Cys(tBuS)—NH2”, in series [3], the isolated mass is 35.4 mg.
